# Measurements reported in the supplement of paper PMC10032668.
# Protein sequences, listed by entry. Tags and fused reporters are not part of them.
# DCTN1, Q14203, UniProt Q14203, whole entry: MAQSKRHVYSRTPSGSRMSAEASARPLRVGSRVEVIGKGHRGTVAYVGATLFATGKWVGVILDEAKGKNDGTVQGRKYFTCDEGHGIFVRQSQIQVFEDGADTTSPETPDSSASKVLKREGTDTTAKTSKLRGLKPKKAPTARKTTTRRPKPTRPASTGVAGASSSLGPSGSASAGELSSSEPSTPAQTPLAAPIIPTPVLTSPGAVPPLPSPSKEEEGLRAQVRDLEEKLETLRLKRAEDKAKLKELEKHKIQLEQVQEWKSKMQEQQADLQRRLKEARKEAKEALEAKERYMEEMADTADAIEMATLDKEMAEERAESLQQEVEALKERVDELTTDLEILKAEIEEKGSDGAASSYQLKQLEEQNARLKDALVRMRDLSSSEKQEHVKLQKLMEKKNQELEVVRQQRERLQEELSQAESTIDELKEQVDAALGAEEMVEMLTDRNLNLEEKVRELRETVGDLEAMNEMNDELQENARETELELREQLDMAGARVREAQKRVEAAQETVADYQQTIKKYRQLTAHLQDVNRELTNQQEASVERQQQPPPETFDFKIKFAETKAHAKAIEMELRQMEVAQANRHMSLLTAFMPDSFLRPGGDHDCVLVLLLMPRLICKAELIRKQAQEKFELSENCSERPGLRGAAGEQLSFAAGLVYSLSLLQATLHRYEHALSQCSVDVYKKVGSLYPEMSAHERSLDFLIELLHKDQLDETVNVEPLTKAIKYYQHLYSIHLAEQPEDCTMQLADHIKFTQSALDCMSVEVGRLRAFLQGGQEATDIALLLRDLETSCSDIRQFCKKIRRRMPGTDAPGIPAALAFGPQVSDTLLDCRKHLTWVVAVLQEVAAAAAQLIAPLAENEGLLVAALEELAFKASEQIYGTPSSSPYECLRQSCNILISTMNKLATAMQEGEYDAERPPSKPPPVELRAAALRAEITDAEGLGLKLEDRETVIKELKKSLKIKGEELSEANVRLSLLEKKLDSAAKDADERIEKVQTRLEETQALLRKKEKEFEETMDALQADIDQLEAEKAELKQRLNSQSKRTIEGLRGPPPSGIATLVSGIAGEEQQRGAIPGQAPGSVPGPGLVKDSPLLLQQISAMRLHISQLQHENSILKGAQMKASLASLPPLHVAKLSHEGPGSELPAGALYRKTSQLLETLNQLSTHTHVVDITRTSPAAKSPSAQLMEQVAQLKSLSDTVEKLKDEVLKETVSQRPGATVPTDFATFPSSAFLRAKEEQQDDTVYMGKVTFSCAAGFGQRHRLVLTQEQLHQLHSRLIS
# EIF1, P41567, UniProt P41567, whole entry: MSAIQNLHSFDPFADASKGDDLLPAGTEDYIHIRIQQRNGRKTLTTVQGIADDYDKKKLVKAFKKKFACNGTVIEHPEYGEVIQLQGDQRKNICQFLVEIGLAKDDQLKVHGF
# EIF1B, O60739, UniProt O60739, whole entry: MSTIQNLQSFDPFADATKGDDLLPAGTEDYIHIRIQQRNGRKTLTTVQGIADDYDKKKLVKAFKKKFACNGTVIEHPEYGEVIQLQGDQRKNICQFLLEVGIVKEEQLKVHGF
# EP400, Q96L91, UniProt Q96L91, whole entry: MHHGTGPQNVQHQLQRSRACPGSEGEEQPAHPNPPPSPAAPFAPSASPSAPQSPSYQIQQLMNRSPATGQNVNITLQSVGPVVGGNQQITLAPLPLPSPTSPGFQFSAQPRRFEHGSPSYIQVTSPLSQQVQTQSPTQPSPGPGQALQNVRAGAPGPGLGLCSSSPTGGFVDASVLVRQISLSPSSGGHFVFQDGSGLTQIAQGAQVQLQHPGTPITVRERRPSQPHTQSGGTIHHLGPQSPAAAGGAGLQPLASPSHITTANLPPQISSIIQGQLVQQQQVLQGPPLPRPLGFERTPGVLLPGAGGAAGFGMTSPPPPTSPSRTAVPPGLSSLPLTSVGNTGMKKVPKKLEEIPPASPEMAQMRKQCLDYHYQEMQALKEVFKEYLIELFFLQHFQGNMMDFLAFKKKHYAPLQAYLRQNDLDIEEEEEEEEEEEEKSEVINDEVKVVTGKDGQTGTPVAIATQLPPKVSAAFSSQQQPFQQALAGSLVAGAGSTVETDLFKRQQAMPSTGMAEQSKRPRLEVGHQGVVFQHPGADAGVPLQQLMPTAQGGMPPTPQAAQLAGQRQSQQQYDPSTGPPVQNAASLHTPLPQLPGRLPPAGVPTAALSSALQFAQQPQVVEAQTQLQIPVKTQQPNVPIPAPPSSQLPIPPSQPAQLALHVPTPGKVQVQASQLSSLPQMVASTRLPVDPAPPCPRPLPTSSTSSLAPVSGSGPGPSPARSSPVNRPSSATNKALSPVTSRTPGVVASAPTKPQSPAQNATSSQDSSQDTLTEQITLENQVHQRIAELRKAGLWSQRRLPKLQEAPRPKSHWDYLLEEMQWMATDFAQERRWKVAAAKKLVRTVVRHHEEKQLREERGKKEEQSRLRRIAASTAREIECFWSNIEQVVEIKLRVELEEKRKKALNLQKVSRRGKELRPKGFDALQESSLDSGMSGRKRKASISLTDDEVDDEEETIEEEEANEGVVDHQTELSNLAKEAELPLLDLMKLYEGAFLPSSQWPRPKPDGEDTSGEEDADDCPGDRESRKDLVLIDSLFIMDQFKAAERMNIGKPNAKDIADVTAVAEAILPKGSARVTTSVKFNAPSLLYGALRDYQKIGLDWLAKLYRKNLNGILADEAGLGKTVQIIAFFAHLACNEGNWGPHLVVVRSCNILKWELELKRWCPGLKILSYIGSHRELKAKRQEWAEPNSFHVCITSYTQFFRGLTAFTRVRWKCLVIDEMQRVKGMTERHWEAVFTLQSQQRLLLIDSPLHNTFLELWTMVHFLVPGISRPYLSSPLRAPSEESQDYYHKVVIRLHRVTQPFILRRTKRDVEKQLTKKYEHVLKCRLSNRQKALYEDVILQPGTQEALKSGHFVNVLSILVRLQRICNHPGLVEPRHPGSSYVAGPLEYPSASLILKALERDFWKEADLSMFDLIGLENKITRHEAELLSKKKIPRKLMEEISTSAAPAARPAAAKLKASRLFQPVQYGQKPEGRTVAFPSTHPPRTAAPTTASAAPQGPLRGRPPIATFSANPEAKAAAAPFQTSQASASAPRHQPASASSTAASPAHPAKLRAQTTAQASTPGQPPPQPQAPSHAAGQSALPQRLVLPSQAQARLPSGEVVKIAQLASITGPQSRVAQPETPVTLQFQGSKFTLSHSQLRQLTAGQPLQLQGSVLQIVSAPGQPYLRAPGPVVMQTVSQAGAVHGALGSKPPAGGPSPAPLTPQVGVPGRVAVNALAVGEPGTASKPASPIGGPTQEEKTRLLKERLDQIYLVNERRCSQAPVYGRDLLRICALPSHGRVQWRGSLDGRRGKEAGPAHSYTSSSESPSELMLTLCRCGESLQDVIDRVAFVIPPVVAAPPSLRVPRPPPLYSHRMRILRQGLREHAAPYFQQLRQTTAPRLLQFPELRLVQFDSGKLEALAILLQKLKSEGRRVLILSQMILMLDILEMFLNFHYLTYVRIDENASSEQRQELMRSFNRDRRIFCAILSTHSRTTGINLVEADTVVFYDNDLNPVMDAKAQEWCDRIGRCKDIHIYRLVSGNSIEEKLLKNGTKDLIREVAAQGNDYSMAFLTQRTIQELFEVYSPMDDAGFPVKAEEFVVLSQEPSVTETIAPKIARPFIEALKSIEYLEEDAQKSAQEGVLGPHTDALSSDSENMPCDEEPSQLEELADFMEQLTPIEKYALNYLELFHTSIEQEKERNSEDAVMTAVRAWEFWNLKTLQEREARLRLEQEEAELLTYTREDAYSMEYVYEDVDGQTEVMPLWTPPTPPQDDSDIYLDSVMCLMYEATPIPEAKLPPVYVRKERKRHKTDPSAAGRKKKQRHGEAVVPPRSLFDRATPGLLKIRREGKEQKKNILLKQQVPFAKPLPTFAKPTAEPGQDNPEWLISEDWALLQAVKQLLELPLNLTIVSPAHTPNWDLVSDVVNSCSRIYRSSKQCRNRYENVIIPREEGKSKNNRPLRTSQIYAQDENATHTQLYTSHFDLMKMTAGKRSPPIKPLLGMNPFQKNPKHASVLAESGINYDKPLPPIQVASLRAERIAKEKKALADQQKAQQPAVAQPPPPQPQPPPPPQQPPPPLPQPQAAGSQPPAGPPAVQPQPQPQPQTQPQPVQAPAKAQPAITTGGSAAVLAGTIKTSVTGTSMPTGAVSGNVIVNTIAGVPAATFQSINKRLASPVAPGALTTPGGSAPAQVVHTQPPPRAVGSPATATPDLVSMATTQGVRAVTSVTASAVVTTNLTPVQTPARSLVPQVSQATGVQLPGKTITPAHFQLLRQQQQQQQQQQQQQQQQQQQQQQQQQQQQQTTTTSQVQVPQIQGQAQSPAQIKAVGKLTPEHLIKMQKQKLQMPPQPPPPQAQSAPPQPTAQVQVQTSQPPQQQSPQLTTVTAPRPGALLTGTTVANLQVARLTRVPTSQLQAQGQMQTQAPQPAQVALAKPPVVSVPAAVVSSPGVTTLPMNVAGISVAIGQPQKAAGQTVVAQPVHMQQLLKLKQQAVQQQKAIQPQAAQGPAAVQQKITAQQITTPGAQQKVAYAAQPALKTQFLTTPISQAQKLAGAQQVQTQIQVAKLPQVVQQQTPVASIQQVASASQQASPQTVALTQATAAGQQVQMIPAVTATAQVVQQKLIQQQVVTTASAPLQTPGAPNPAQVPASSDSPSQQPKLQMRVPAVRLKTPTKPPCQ
# EPB41L2, O43491, UniProt O43491, whole entry: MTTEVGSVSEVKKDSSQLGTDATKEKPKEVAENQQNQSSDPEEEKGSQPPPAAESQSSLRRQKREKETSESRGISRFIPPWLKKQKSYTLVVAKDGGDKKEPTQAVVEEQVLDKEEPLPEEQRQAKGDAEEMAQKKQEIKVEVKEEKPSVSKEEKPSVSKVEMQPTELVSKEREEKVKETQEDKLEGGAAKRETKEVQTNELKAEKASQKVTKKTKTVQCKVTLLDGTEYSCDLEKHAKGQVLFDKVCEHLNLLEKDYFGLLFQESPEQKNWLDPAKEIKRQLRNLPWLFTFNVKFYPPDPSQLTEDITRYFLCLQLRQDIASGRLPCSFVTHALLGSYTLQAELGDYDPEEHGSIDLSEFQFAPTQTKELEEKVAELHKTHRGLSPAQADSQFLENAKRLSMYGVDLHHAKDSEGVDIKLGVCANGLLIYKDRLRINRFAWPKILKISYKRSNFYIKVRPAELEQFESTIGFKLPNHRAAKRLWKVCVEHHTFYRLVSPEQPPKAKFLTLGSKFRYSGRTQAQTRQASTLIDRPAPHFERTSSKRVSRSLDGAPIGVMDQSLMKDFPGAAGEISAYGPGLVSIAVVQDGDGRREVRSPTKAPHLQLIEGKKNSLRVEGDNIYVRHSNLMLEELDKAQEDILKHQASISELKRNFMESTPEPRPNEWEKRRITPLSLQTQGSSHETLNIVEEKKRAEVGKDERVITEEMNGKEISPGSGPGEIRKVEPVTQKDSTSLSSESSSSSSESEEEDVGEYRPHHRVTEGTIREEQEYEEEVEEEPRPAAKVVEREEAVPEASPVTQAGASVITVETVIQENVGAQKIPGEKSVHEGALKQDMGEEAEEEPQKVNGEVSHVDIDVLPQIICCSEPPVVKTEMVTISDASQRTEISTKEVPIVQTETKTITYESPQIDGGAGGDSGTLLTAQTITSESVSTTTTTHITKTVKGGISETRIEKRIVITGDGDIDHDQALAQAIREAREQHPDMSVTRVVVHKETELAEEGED
# LARP4B, Q92615, UniProt Q92615, whole entry: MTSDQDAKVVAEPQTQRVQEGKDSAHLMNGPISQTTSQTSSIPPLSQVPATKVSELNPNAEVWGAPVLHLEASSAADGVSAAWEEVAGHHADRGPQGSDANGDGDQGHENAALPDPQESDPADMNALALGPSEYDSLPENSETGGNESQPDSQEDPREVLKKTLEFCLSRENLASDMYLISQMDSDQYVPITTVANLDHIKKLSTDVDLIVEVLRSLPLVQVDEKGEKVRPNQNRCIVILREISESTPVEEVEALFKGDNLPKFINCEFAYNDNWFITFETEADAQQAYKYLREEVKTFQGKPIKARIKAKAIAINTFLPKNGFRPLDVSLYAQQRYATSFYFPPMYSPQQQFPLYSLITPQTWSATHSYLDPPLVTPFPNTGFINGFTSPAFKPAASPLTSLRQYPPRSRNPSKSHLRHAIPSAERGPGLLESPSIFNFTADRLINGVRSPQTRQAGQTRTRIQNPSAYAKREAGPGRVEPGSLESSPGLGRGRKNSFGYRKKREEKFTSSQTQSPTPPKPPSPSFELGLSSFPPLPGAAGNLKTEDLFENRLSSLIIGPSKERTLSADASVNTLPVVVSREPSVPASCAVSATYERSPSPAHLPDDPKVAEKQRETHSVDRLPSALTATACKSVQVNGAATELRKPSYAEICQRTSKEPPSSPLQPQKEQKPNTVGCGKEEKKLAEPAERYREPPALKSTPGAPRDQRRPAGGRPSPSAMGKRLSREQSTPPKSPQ
# ± gives the standard deviation of the averaged measurements. The list shows a part of the results. The list holds hits alone, and they repeat only in part.
# What was measured:
# Assay in all cases: PRISMA enrichment of interactor (LFQ) in peptide spot vs all other peptide spots (log2 fold change); higher = stronger / more specific binding of the interactor to the peptide
# CXorf56, Q9H5V9 = target: CXorf56, Q9H5V9
# Experimental: (§1)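 PRISMA: 221 full-length sORF-encoded peptides (3-15 aa), plus SOS1/GLUT1 control peptides, were spot-synthesized on cellulose membranes in triplicate. Membranes were incubated with HEK293T lysate, and bound proteins were identified by LC-MS/MS with LFQ. Enrichment is the log2 fold change versus all other peptide spots; only significant interactors are listed (cutoff c=6, x0=2.8).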
# DAZAP1, Q96EP5 = target: DAZAP1, Q96EP5
# Experimental: as §1
# DCTN1, Q14203 = target: DCTN1, Q14203
# Experimental: as §1
# DDX6, P26196 = target: DDX6, P26196
# Experimental: as §1
# DERPC, P0CG12 = target: DERPC, P0CG12
# Experimental: as §1
# DIDO1, Q9BTC0 = target: DIDO1, Q9BTC0
# Experimental: as §1
# DIS3, Q9Y2L1 = target: DIS3, Q9Y2L1
# Experimental: as §1
# DNAJB11, Q9UBS4 = target: DNAJB11, Q9UBS4
# Experimental: as §1
# EDF1, O60869 = target: EDF1, O60869
# Experimental: as §1
# EIF1, P41567 = target: EIF1, P41567
# Experimental: as §1
# EIF1B, O60739 = target: EIF1B, O60739
# Experimental: as §1
# EIF4H, Q15056 = target: EIF4H, Q15056
# Experimental: as §1
# ELF2, Q15723 = target: ELF2, Q15723
# Experimental: as §1
# EP400, Q96L91 = target: EP400, Q96L91
# Experimental: as §1
# EPB41L2, O43491 = target: EPB41L2, O43491
# Experimental: as §1
# FAM168A, Q92567 = target: FAM168A, Q92567
# Experimental: as §1
# FAM207A, Q9NSI2 = target: FAM207A, Q9NSI2
# Experimental: as §1
# FOXK1, P85037 = target: FOXK1, P85037
# Experimental: as §1
# FOXK2, Q01167 = target: FOXK2, Q01167
# Experimental: as §1
# GATAD2A, Q86YP4 = target: GATAD2A, Q86YP4
# Experimental: as §1
# HCFC1, P51610 = target: HCFC1, P51610
# Experimental: as §1
# HDLBP, Q00341 = target: HDLBP, Q00341
# Experimental: as §1
# ISCU, Q9H1K1 = target: ISCU, Q9H1K1
# Experimental: as §1
# KIF22, Q14807 = target: KIF22, Q14807
# Experimental: as §1
# KIF23, Q02241 = target: KIF23, Q02241
# Experimental: as §1
# KIF2C, Q99661 = target: KIF2C, Q99661
# Experimental: as §1
# KMT2A, Q03164 = target: KMT2A, Q03164
# Experimental: as §1
# KNSTRN, Q9Y448 = target: KNSTRN, Q9Y448
# Experimental: as §1
# LARP4, Q71RC2 = target: LARP4, Q71RC2
# Experimental: as §1
# LARP4B, Q92615 = target: LARP4B, Q92615
# Experimental: as §1
binder,measurement,setting,value
MAASSEIIIQVFVS [VPS8],PRISMA enrichment of interactor (log2),"CXorf56, Q9H5V9",4.96
same,PRISMA enrichment of interactor (log2),"DAZAP1, Q96EP5",5.09
same,PRISMA enrichment of interactor (log2),"DCTN1, Q14203",4.67
same,PRISMA enrichment of interactor (log2),"DDX6, P26196",5.13
same,PRISMA enrichment of interactor (log2),"DERPC, P0CG12",5.28
same,PRISMA enrichment of interactor (log2),"DIDO1, Q9BTC0",10.4
same,PRISMA enrichment of interactor (log2),"DIS3, Q9Y2L1",4.83
same,PRISMA enrichment of interactor (log2),"DNAJB11, Q9UBS4",7.79
same,PRISMA enrichment of interactor (log2),"EDF1, O60869",4.86
same,PRISMA enrichment of interactor (log2),"EIF1, P41567",5.6
same,PRISMA enrichment of interactor (log2),"EIF1B, O60739",5.76
same,PRISMA enrichment of interactor (log2),"EIF4H, Q15056",5.02
same,PRISMA enrichment of interactor (log2),"ELF2, Q15723",6.1
same,PRISMA enrichment of interactor (log2),"EP400, Q96L91",5.89
same,PRISMA enrichment of interactor (log2),"EPB41L2, O43491",4.84
same,PRISMA enrichment of interactor (log2),"FAM168A, Q92567",5.04
same,PRISMA enrichment of interactor (log2),"FAM207A, Q9NSI2",4.15
same,PRISMA enrichment of interactor (log2),"FOXK1, P85037",5.58
same,PRISMA enrichment of interactor (log2),"FOXK2, Q01167",6.91
same,PRISMA enrichment of interactor (log2),"GATAD2A, Q86YP4",4.89
same,PRISMA enrichment of interactor (log2),"HCFC1, P51610",8 ± 3.3
same,PRISMA enrichment of interactor (log2),"HDLBP, Q00341",5.44
same,PRISMA enrichment of interactor (log2),"ISCU, Q9H1K1",6.17
same,PRISMA enrichment of interactor (log2),"KIF22, Q14807",4.73
same,PRISMA enrichment of interactor (log2),"KIF23, Q02241",4.43
same,PRISMA enrichment of interactor (log2),"KIF2C, Q99661",5.12
same,PRISMA enrichment of interactor (log2),"KMT2A, Q03164",4.43
same,PRISMA enrichment of interactor (log2),"KNSTRN, Q9Y448",4.3
same,PRISMA enrichment of interactor (log2),"LARP4, Q71RC2",6.33
same,PRISMA enrichment of interactor (log2),"LARP4B, Q92615",4.71

# Some of the entries so far, with bars between the fields.
binder | measurement | setting | value
MAASSEIIIQVFVS [VPS8] | PRISMA enrichment of interactor (log2) | DIS3, Q9Y2L1 | 4.83
same | PRISMA enrichment of interactor (log2) | ISCU, Q9H1K1 | 6.17
